This is an account of results in paper PMC12198979.

The chains behind the UniProt entries cited, without tags or fusion partners.
UniProt Q09028: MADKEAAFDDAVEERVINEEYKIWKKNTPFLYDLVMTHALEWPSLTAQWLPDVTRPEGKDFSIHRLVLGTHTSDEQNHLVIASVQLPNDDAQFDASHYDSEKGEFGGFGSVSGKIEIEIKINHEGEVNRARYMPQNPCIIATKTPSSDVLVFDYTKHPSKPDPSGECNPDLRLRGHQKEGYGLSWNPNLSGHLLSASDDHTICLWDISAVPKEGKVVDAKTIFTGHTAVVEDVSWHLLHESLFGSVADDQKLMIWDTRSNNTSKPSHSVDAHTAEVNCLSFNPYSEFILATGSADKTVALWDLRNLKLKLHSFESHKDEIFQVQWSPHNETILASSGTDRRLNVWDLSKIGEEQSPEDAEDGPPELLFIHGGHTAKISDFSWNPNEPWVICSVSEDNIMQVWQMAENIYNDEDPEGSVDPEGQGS
UniProt Q15022: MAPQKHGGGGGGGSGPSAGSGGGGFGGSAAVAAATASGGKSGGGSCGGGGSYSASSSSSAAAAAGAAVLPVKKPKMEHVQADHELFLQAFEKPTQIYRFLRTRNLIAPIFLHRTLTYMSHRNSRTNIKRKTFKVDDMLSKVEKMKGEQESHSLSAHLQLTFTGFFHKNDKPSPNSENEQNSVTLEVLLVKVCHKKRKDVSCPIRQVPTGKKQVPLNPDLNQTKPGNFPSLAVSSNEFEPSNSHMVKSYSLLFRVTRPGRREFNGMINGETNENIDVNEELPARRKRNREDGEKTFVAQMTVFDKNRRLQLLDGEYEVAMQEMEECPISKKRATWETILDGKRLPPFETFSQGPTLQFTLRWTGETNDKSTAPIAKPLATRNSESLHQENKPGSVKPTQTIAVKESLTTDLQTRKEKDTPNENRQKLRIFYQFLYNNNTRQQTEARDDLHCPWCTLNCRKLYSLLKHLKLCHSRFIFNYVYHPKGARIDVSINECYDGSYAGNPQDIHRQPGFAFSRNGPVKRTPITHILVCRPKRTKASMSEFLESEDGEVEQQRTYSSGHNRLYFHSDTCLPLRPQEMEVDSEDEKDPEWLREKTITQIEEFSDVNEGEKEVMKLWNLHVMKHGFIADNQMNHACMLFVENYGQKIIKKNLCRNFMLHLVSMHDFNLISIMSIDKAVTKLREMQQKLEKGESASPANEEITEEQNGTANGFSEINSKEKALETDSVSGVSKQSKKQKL
UniProt O75530: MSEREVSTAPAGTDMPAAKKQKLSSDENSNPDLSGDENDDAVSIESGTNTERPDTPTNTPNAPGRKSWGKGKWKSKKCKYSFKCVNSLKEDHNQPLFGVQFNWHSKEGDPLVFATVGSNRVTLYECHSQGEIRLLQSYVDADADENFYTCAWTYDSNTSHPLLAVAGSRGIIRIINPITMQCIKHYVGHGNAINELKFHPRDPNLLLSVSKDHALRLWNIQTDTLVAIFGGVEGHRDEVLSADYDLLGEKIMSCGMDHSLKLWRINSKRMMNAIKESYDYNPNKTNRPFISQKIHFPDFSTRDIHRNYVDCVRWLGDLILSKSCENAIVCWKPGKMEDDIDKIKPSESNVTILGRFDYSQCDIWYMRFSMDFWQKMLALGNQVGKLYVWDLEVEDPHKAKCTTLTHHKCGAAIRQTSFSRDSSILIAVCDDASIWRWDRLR

Results are given in words; binding and its absence hold for the method and conditions named. In cells and extracts the contact can be indirect. Some entries that bind do so weakly or less than the wild type. Tags and fused reporters may be left off the sequences shown.

For test [1], the target named is T1, DEK-His-GFP (LAP-tag DEK fusion) (human) (UniProt P35659).
T1 sequence: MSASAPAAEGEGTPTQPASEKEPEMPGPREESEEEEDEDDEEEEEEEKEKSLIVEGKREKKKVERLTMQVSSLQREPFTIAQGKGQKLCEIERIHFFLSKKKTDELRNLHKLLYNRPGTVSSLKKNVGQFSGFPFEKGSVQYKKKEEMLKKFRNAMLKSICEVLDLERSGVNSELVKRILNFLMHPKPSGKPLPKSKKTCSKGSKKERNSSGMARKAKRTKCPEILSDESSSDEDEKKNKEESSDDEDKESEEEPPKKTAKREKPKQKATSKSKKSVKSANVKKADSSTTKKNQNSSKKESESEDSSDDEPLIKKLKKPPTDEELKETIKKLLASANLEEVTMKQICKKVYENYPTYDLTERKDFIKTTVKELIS
The test can be described thus: co-IP; GFP-trap (LAP-tag immunoprecipitation): nuclear extract of tetracycline-induced HEK293 cells on GFP-trap beads, 1 h at 4°C; wash buffer 10 mM Tris-HCl pH 7.5, 150 mM NaCl, 0.5 mM EDTA; eluted with 0.2 M glycine pH 2.5; immunoblot. For orientation: Immunoblotting shows a protein as a band on a membrane.

Test [2] concerns the target T2, DEK (full-length, untagged, doxycycline-induced from pTRIPZ) (human) (UniProt P35659).
T2 sequence: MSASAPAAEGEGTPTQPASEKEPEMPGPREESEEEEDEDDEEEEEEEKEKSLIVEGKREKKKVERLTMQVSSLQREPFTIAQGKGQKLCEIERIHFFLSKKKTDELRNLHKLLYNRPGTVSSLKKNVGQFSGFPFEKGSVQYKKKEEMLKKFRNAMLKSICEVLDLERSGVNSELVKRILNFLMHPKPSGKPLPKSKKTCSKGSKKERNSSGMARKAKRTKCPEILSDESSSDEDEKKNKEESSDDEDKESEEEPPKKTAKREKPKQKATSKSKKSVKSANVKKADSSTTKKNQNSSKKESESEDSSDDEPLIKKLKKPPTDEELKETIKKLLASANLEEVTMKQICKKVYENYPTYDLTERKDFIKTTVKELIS
The test can be described thus: co-IP; whole cell lysates of MCF10A pTRIPZ-DEK cells induced with doxycycline for 48 h; IP lysis buffer 25 mM NaCl, 25 mM Tris-HCl, 1 mM EDTA, 1% Nonidet P-40, 5% glycerol; immunoprecipitation with DEK or SUZ12 antibody overnight at 4°C, protein A/G agarose beads; immunoblot.

The target in test [3] is T3, DEK-His-GFP (LAP-tag DEK fusion) (human), P35659.
T3 chain: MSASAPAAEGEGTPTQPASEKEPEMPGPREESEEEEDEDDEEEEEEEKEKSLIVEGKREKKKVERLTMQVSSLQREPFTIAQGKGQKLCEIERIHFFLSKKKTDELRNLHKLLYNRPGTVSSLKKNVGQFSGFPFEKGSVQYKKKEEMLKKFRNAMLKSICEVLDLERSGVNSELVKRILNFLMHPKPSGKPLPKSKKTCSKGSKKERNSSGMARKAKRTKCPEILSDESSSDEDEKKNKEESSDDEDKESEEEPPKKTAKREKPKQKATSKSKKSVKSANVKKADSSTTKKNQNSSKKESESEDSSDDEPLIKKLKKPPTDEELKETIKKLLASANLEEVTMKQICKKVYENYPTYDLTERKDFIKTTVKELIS
The test can be described thus: co-IP; GFP-trap (LAP-tag immunoprecipitation): nuclear extract of tetracycline-induced HEK293 cells on GFP-trap beads, 1 h at 4°C; wash buffer 10 mM Tris-HCl pH 7.5, 150 mM NaCl, 0.5 mM EDTA; eluted with 0.2 M glycine pH 2.5; immunoblot. The following applies: remark: other sources report otherwise.

Consider RBBP4 (from UniProt Q09028 1-425), for which, in test [1], the binding result is recorded as “binds”.

Regarding SUZ12 (from UniProt Q15022 1-739), the binding entry in test [2] is “binds”. Consider EED (from UniProt O75530 1-441), for which the binding result in test [1] is reported as “binds”.

B1: endogenous DEK, P35659 1-375 (protein)
chain: MSASAPAAEGEGTPTQPASEKEPEMPGPREESEEEEDEDDEEEEEEEKEKSLIVEGKREKKKVERLTMQVSSLQREPFTIAQGKGQKLCEIERIHFFLSKKKTDELRNLHKLLYNRPGTVSSLKKNVGQFSGFPFEKGSVQYKKKEEMLKKFRNAMLKSICEVLDLERSGVNSELVKRILNFLMHPKPSGKPLPKSKKTCSKGSKKERNSSGMARKAKRTKCPEILSDESSSDEDEKKNKEESSDDEDKESEEEPPKKTAKREKPKQKATSKSKKSVKSANVKKADSSTTKKNQNSSKKESESEDSSDDEPLIKKLKKPPTDEELKETIKKLLASANLEEVTMKQICKKVYENYPTYDLTERKDFIKTTVKELIS
B1: in test [3], the binding entry is “binds”.
